The reference is the same well before dosing, and untreated signal decays as well.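 Fibroblast labels denote human fibroblasts, mainly primary ones from uterus (C12385, HUF), lung (H6013), bone (Hs27A), adrenal (HADF) and skin (WS1), plus mammary HMF and breast cancer-associated Hs343T. Cancer cells are basal-like or mesenchymal-like triple-negative breast cancer lines. A hit is a response shift exceeding 3x replicate standard deviation. The tissue of the other fibroblasts is not given here.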
System: HCC1143
Experiment: relative JC-1 red fluorescence (viability) vs pre-drug, coculture with fibroblast (fraction); higher = more viable cancer cells
Description: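 JC-1 labelled TNBC cells cocultured 1:1 (1,500 cells each) with CellTrace Violet stained primary or stromal fibroblasts in 384-well plates in FluoroBrite medium, treated with one of 42 anticancer drugs at 0.1, 1, 10 or 100 uM. JC-1 red fluorescence (mitochondrial integrity in cancer cells only) was read by plate reader every 8 h for 72 h. Values are normalised to each well's pre-drug value. The stock of one drug was tenfold lower, so its dose labels may be too high.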

O=NN(CCCl)C(=O)NCCCl [Carmustine]
relative JC-1 red fluorescence
Conditions | 8 h | 16 h | 24 h | 32 h | 40 h | 48 h | 56 h | 64 h | 72 h
10 µM, coculture fibroblast: C12385 | 0.854 | 0.7606 | 0.672 | 0.604 | 0.536 | 0.49 | 0.448 | 0.403 | 0.371
10 µM, coculture fibroblast: H6013 | 0.769 | 0.671 | 0.634 | 0.615 | 0.552 | 0.548 | 0.517 | 0.496 | 0.443
10 µM, coculture fibroblast: H6019 | 0.796 | 0.684 | 0.628 | 0.561 | 0.51 | 0.491 | 0.44 | 0.397 | 0.359
10 µM, coculture fibroblast: H6076 | 0.814 | 0.816 | 0.7457 | 0.71 | 0.652 | 0.6374 | 0.6 | 0.576 | 0.577
10 µM, coculture fibroblast: H6231 | 0.826 | 0.828 | 0.736 | 0.652 | 0.65 | 0.62 | 0.583 | 0.543 | 0.515
10 µM, coculture fibroblast: HADF | 0.7892 | 0.729 | 0.708 | 0.715 | 0.6293 | 0.606 | 0.564 | 0.534 | 0.508
10 µM, coculture fibroblast: HCFa | 0.792 | 0.712 | 0.69 | 0.675 | 0.601 | 0.578 | 0.531 | 0.505 | 0.478
10 µM, coculture fibroblast: HCPF | 0.814 | 0.8 | 0.738 | 0.676 | 0.641 | 0.617 | 0.576 | 0.541 | 0.527
10 µM, coculture fibroblast: HHSteC | 0.7935 | 0.689 | 0.645 | 0.603 | 0.512 | 0.472 | 0.43 | 0.397 | 0.36
10 µM, coculture fibroblast: HMF | 0.807 | 0.843 | 0.754 | 0.682 | 0.651 | 0.618 | 0.573 | 0.549 | 0.529
10 µM, coculture fibroblast: HPFa | 0.888 | 0.798 | 0.7463 | 0.658 | 0.5814 | 0.5438 | 0.4782 | 0.4253 | 0.379
10 µM, coculture fibroblast: HUF | 0.863 | 0.7726 | 0.694 | 0.615 | 0.564 | 0.522 | 0.479 | 0.446 | 0.411
10 µM, coculture fibroblast: Hs5 | 0.862 | 0.815 | 0.7913 | 0.796 | 0.714 | 0.693 | 0.669 | 0.64 | 0.648
10 µM, coculture fibroblast: Hs27A | 0.722 | 0.628 | 0.574 | 0.588 | 0.479 | 0.454 | 0.404 | 0.368 | 0.337
10 µM, coculture fibroblast: Hs343T | 0.822 | 0.842 | 0.79 | 0.734 | 0.686 | 0.663 | 0.618 | 0.581 | 0.556
10 µM, coculture fibroblast: WS1 | 0.861 | 0.767 | 0.703 | 0.626 | 0.562 | 0.5193 | 0.478 | 0.439 | 0.411
100 µM, coculture fibroblast: C12385 | 0.843 | 0.79 | 0.756 | 0.715 | 0.665 | 0.641 | 0.618 | 0.587 | 0.58
100 µM, coculture fibroblast: H6013 | 0.792 | 0.767 | 0.758 | 0.757 | 0.727 | 0.741 | 0.704 | 0.69 | 0.632
100 µM, coculture fibroblast: H6019 | 0.801 | 0.731 | 0.69 | 0.62 | 0.582 | 0.562 | 0.506 | 0.459 | 0.418
100 µM, coculture fibroblast: H6076 | 0.80691 | 0.754 | 0.744 | 0.746 | 0.683 | 0.68 | 0.664 | 0.656 | 0.675
100 µM, coculture fibroblast: H6231 | 0.8042 | 0.805 | 0.761 | 0.687 | 0.68 | 0.656 | 0.632 | 0.602 | 0.597
100 µM, coculture fibroblast: HADF | 0.76 | 0.72 | 0.684 | 0.671 | 0.598 | 0.586 | 0.558 | 0.54 | 0.513
100 µM, coculture fibroblast: HCFa | 0.762 | 0.687 | 0.642 | 0.617 | 0.54 | 0.514 | 0.467 | 0.438 | 0.404
100 µM, coculture fibroblast: HCPF | 0.815 | 0.777 | 0.745 | 0.705 | 0.682 | 0.656 | 0.626 | 0.604 | 0.602
100 µM, coculture fibroblast: HHSteC | 0.8319 | 0.8058 | 0.775 | 0.75 | 0.692 | 0.675 | 0.641 | 0.617 | 0.567
100 µM, coculture fibroblast: HMF | 0.7833 | 0.786 | 0.723 | 0.648 | 0.628 | 0.602 | 0.566 | 0.541 | 0.521
100 µM, coculture fibroblast: HPFa | 0.878 | 0.806 | 0.777 | 0.678 | 0.622 | 0.59 | 0.522 | 0.4788 | 0.4359
100 µM, coculture fibroblast: HUF | 0.865 | 0.778 | 0.731 | 0.663 | 0.612 | 0.594 | 0.546 | 0.514 | 0.489
100 µM, coculture fibroblast: Hs5 | 0.8535 | 0.841 | 0.8103 | 0.7879 | 0.715 | 0.689 | 0.669 | 0.659 | 0.66
100 µM, coculture fibroblast: Hs27A | 0.744 | 0.724 | 0.699 | 0.724 | 0.632 | 0.654 | 0.629 | 0.618 | 0.578
100 µM, coculture fibroblast: Hs343T | 0.804 | 0.816 | 0.763 | 0.685 | 0.657 | 0.624 | 0.589 | 0.57 | 0.546
100 µM, coculture fibroblast: WS1 | 0.818 | 0.76 | 0.73 | 0.669 | 0.622 | 0.59 | 0.549 | 0.516 | 0.49

From the supplement of paper PMC6078165
